This is one part of the list.
Columns and labels:
Experiment in all cases: glycan array binding signal (z-score within array); higher = stronger binding
Conditions in all cases: glycan notation: IUPAC condensed, linker removed
[1] = target: Neu5Ac(a2-6)GlcNAc(b1-4)GlcNAc(b1-4)GlcNAc
Method in brief: (§1)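 From the Consortium for Functional Glycomics database, 3228 arrays were curated, keeping only those whose protein sequence was available. Binding is given as a within-array Z-score averaged across arrays sharing a protein sequence and across linkers. Negative Z-scores can be read as non-binding.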

Neu5Ac(a2-8)Neu5Ac = target: Neu5Ac(a2-8)Neu5Ac
Method in brief: as §1

[2] = target: Neu5Ac(a2-8)Neu5Ac(a2-3)Gal(b1-3)GalNAc(b1-4)[Neu5Ac(a2-3)]Gal(b1-4)Glc
Method in brief: as §1

[3] = target: Neu5Ac(a2-8)Neu5Ac(a2-3)Gal(b1-3)GalNAc(b1-4)[Neu5Ac(a2-8)Neu5Ac(a2-3)]Gal(b1-4)Glc
Method in brief: as §1

[4] = target: Neu5Ac(a2-8)Neu5Ac(a2-3)Gal(b1-4)Glc
Method in brief: as §1

[5] = target: Neu5Ac(a2-8)Neu5Ac(a2-3)Gal(b1-4)GlcNAc
Method in brief: as §1

[6] = target: Neu5Ac(a2-8)Neu5Ac(a2-3)[Gal(b1-3)GalNAc(b1-4)]Gal(b1-4)Glc
Method in brief: as §1

[7] = target: Neu5Ac(a2-8)Neu5Ac(a2-3)[GalNAc(b1-4)]Gal(b1-4)Glc
Method in brief: as §1

[8] = target: Neu5Ac(a2-8)Neu5Ac(a2-8)Neu5Ac
Method in brief: as §1

[9] = target: Neu5Ac(a2-8)Neu5Ac(a2-8)Neu5Ac(a2-3)Gal(b1-4)Glc
Method in brief: as §1

[10] = target: Neu5Ac(a2-8)Neu5Ac(a2-8)Neu5Ac(a2-3)[Gal(b1-3)GalNAc(b1-4)]Gal(b1-4)Glc
Method in brief: as §1

[11] = target: Neu5Ac(a2-8)Neu5Ac(a2-8)Neu5Ac(a2-3)[GalNAc(b1-4)]Gal(b1-4)Glc
Method in brief: as §1

[12] = target: Neu5Ac(a2-8)Neu5Ac(a2-8)Neu5Ac(a2-8)Neu5Ac(a2-3)[GalNAc(b1-4)]Gal(b1-4)Glc
Method in brief: as §1

[13] = target: Neu5Ac(a2-8)Neu5Gc(a2-3)Gal(b1-4)GlcNAc
Method in brief: as §1

[14] = target: Neu5Ac(b2-6)Gal(b1-4)GlcNAc
Method in brief: as §1

Neu5Ac(b2-6)GalNAc = target: Neu5Ac(b2-6)GalNAc
Method in brief: as §1

[15] = target: Neu5Ac9Ac(a2-3)Gal(b1-3)GlcNAc
Method in brief: as §1

[16] = target: Neu5Ac9Ac(a2-3)Gal(b1-4)GlcNAc
Method in brief: as §1

[17] = target: Neu5Ac9Ac(a2-6)Gal(b1-4)GlcNAc
Method in brief: as §1

[18] = target: Neu5Gc(a2-3)Gal(b1-3)GlcNAc
Method in brief: as §1

[19] = target: Neu5Gc(a2-3)Gal(b1-3)[Fuc(a1-4)]GlcNAc
Method in brief: as §1

Neu5Gc(a2-3)Gal(b1-4)Glc = target: Neu5Gc(a2-3)Gal(b1-4)Glc
Method in brief: as §1

[20] = target: Neu5Gc(a2-3)Gal(b1-4)GlcNAc
Method in brief: as §1

[21] = target: Neu5Gc(a2-3)Gal(b1-4)GlcNAc(b1-3)Gal(b1-4)GlcNAc(b1-2)Man(a1-3)[Neu5Gc(a2-3)Gal(b1-4)GlcNAc(b1-3)Gal(b1-4)GlcNAc(b1-2)Man(a1-6)]Man(b1-4)GlcNAc(b1-4)GlcNAc
Method in brief: as §1

[22] = target: Neu5Gc(a2-3)Gal(b1-4)[Fuc(a1-3)]GlcNAc
Method in brief: as §1

[23] = target: Neu5Gc(a2-6)Gal(b1-4)GlcNAc
Method in brief: as §1

Neu5Gc(a2-6)GalNAc = target: Neu5Gc(a2-6)GalNAc
Method in brief: as §1

[24] = target: Neu5Gc(a2-8)Neu5Ac(a2-3)Gal(b1-4)GlcNAc
Method in brief: as §1

[25] = target: Neu5Gc(a2-8)Neu5Gc(a2-3)Gal(b1-4)GlcNAc
Method in brief: as §1

[26] = target: Neu5Gc(a2-8)Neu5Gc(a2-3)Gal(b1-4)GlcNAc(b1-3)Gal(b1-4)GlcNAc
Method in brief: as §1

[27] = target: Neu5Gc(a2-8)Neu5Gc(a2-6)Gal(b1-4)GlcNAc
Method in brief: as §1

[28] = target: Neu5Gc(b2-6)Gal(b1-4)GlcNAc
Method in brief: as §1

B1: PX14375A-pdi-503-28-503 (Parabacteroides distasonis) (protein)
chain: PLGSPEAGDISEERQAFLRLTAVYSVMKDFRYTWSMQCFGDVLSNDATYSGSSNDAQTFTLLENYQYQADHTEILNKYRYSYQCINKANLFIRDMEMADDALFSKYDKEQMIGEAKFIRAYTYFELVKTFGGVPCYTGVLDLDHERLGRASVEEIYSVIEQDLNDAVSVLPKKSEVANYESSYAGRITKGAAIAMQTRIYLYEKKYDEVKKAFEKFQNECGGEYSLVAPEDYTWQFSLDGEHCSSSILEVNMYNSSTQSSYNVNNGNRHVLMSMPRNMTIGFGCAQPTQALADAYDAEGDVIRKKTTLLSTEEAIEIETAAKGDVAPVTDDRTGWYNRKLYLAPGQREENRGNNQPTNLRLIRLAEVYLNYAEACYFSGDIANAQKYLNEVRSHVNLAPKNHTGSQLFEDIMNERHLEFGMEGFRFFDVVRVGWGEKVFNGTKKAEFGAKTPFSAGAEVLPIPQTEIDISDGLITN
glycan array binding signal (z-score) [1]: -0.752
glycan array binding signal (z-score) (Neu5Ac(a2-8)Neu5Ac): -0.35
glycan array binding signal (z-score) [2]: -0.127
glycan array binding signal (z-score) [3]: 0.275
glycan array binding signal (z-score) [4]: 0.052
glycan array binding signal (z-score) [5]: -0.905
glycan array binding signal (z-score) [6]: 0.562
glycan array binding signal (z-score) [7]: 0.124
glycan array binding signal (z-score) [8]: -0.278
glycan array binding signal (z-score) [9]: 0.007
glycan array binding signal (z-score) [10]: 0.064
glycan array binding signal (z-score) [11]: -0.885
glycan array binding signal (z-score) [12]: -0.13
glycan array binding signal (z-score) [13]: 13.2
glycan array binding signal (z-score) [14]: 0.328
glycan array binding signal (z-score) (Neu5Ac(b2-6)GalNAc): -0.895
glycan array binding signal (z-score) [15]: 0.199
glycan array binding signal (z-score) [16]: -0.837
glycan array binding signal (z-score) [17]: -0.778
glycan array binding signal (z-score) [18]: -0.688
glycan array binding signal (z-score) [19]: -0.334
glycan array binding signal (z-score) (Neu5Gc(a2-3)Gal(b1-4)Glc): -0.317
glycan array binding signal (z-score) [20]: -0.718
glycan array binding signal (z-score) [21]: 0.828
glycan array binding signal (z-score) [22]: 0.175
glycan array binding signal (z-score) [23]: -0.592
glycan array binding signal (z-score) (Neu5Gc(a2-6)GalNAc): -0.468
glycan array binding signal (z-score) [24]: -0.177
glycan array binding signal (z-score) [25]: -0.736
glycan array binding signal (z-score) [26]: -0.755
glycan array binding signal (z-score) [27]: -0.051
glycan array binding signal (z-score) [28]: -0.19

— the supplement of paper PMC8728848
